Test results taken from publication PMC7060279.
Substitutions are numbered along the chain they refer to. These are yes or no findings as the source states them, for the method shown. Some entries that bind do so weakly or less than the wild type.

Chains of the proteins cited; added tags and fusions are not shown. Residues count along the entry.
UniProt O60603, residues 21-588: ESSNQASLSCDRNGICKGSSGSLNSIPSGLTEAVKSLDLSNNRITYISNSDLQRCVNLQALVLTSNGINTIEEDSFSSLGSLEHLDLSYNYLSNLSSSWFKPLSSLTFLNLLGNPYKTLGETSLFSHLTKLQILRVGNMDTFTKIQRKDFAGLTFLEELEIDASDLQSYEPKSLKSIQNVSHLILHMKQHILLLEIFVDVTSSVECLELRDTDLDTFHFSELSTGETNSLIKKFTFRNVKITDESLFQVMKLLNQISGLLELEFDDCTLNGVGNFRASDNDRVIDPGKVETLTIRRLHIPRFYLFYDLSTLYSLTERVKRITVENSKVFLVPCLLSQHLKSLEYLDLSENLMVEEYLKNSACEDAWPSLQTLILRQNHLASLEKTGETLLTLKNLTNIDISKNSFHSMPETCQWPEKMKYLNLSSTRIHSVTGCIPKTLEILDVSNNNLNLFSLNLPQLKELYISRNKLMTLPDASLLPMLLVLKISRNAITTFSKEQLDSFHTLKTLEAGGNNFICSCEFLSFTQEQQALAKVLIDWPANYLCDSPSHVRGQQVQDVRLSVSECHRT
UniProt O00206, residues 24-631: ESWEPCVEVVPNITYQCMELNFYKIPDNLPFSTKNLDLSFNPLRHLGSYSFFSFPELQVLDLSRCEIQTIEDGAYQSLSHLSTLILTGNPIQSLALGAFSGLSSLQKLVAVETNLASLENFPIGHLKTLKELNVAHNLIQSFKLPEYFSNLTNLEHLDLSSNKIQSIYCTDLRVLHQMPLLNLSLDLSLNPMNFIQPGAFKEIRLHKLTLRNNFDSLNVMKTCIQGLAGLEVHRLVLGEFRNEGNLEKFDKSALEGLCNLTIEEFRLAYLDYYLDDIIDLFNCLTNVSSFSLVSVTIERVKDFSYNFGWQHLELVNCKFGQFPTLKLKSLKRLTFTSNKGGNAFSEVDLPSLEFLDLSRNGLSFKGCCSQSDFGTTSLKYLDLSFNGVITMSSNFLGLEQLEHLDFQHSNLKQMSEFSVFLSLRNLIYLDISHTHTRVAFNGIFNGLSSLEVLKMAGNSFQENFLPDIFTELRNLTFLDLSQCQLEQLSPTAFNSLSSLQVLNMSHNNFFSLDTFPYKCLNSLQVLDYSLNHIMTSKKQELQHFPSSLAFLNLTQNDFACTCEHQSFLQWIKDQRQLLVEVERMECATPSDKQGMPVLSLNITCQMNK

Legend:
[1] = molecular target: T1, CCN1-D125A mutant protein (UniProt P18406); assay: far-Western, overlay or dot blot; dot blot: CCN1-WT, -D125A and -DM (1 µg each) spotted on nitrocellulose, incubated with hTLR2 or hTLR4 in PBS; bound TLRs detected with polyclonal anti-hTLR2 or anti-hTLR4 antibodies; both purified
T1 sequence: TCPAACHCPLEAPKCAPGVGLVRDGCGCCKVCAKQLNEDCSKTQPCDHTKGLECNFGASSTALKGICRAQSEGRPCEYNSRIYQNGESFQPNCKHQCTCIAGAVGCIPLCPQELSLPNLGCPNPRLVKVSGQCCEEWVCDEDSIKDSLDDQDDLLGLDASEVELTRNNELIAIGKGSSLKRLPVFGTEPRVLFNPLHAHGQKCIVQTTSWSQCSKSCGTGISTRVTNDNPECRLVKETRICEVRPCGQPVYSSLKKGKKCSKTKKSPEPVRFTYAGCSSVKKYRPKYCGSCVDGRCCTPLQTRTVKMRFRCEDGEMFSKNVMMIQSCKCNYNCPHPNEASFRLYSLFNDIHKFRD

[2] = molecular target: T2, CCN1-WT (recombinant matricellular protein CCN1) (UniProt P18406); assay: as above
T2 sequence: T1 sequence with A101D

[3] = molecular target: T2, CCN1-WT (recombinant matricellular protein CCN1); assay: ELISA; solid-phase-binding assay: 96-well plates coated with serially diluted CCN1 in bicarbonate/carbonate buffer (100 mM, pH 9.6) overnight at 4 °C, blocked with PVA; hTLR2, hTLR4 or hCD14 (0.2 µg per well) added; detected with anti-hTLR2, anti-hTLR4 or anti-hCD14 antibodies, HRP/TMB, A450; both …

Measured: binding

human recombinant TLR2 protein (from UniProt O60603 21-588) (receptor)
binds: all assays above

human recombinant TLR4 protein (without MD2) (from UniProt O00206 24-631) (receptor)
binds: all assays above
